Measurements from US20120264827A1, “SULFANYLAMIDE DERIVATIVES, USES THEREOF AND COMPOSITIONS COMPRISING THEM” (YISSUM RESEARCH DEVELOPMENT COMPANY OF THE HEBREW …, priority 2009, published 2012).

Legend:
in vivo = conditions: male, Sprague-Dawley, rat, po

`CCC(CC(C)C)C(=O)Nc1ccc(S(N)(=O)=O)cc1` (centres unmarked) [Compound 23, 2-Ethyl-4-methyl-N-(4-sulfamoyl-phenyl)-pentanamide] gave a TD50 (in vivo) greater than 500 mg/kg and a melting point of 199 to 200 °C.
